Measurements reported in the supplement of paper PMC11348887.
Where a name gives a salt, the structure may show the parent alone. This is one part of the list. Most entries show no effect beyond the scatter of the controls.

The compounds below were run on hPSC-derived cortical neurons (WA09) (assay: nucleus area z-score vs screen plate; higher = larger nuclei (more mature)). Conditions: 5 µM; treatment: days 7-14 after plating, readout day 21.

Structure (SMILES)	nucleus area z-score
Cc1coc2c1C(=O)C(=O)c1c-2ccc2c1CCCC2(C)C [Tanshinone IIA]	-0.0564
Cc1ccc2nc(CN(CCN(Cc3nc4ccc(C)cc4[nH]3)Cc3nc4ccc(C)cc4[nH]3)Cc3nc4ccc(C)cc4[nH]3)[nH]c2c1	-15.1
CC(C)[C@H](N)C(=O)OCC(CO)OCn1cnc2c(=O)[nH]c(N)nc21 (stereo not given in full) [Valganciclovir HCl]	-1.01
CN(C)CC/C=C1/c2ccccc2Sc2ccc(Cl)cc21 [Chlorprothixene]	-0.835
CCOC(N)=O [Urethane]	3.28
O=C(NCc1ccncc1)C12CC3CC(C1)CC(c1ccc(Cl)cc1)(C3)C2	2.12
N[C@@H]1CONC1=O [D-Cycloserine]	-0.242
O=S(=O)(O)CCSSCCS(=O)(=O)O [Dimesna]	0.682
Cc1cn(-c2cc(NC(=O)c3ccc(C)c(Nc4nccc(-c5cnccn5)n4)c3)cc(C(F)(F)F)c2)cn1 [Radotinib]	1.15
Cc1cc(O)c2c(c1)C(=O)c1cccc(O)c1C2=O [Chrysophanic Acid]	0.39
O=C(/C=C/c1ccc(O)c(O)c1)c1ccc(O)cc1O [Butein]	-1.89
NC(=O)Nc1cc(-c2cccc(F)c2)sc1C(=O)N[C@H]1CCCNC1	-0.132
CN1CCN(CCCN2c3ccccc3Sc3ccc(Cl)cc32)CC1 [Prochlorperazine dimaleate salt]	-12.5
CCCCCCCCOc1ccccc1C(=O)Nc1ccc(C(=O)OCC[N+](C)(CC)CC)cc1 [Otilonium Bromide]	-3.38
COc1cc([C@@H]2c3cc4c(cc3[C@@H](O[C@@H]3O[C@@H]5CO[C@@H](C)O[C@H]5[C@H](O)[C@H]3O)[C@H]3COC(=O)[C@H]23)OCO4)cc(OC)c1O [Etoposide]	-0.64
O=C1NCCCc2c1oc1ccc(O)cc21	-0.937
CN[C@@H](C)C(=O)N[C@H](C(=O)N1CCC[C@H]1C(=O)Nc1snnc1-c1ccccc1)C1CCCCC1	0.119
CC1=CC(=O)c2ccccc2C1=O [Menadione]	0.51
CCCN1CCCC[C@H]1C(=O)Nc1c(C)cccc1C [Ropivacaine HCl]	0.381
N#CC1(c2ccc(NC(=O)c3cccnc3NCc3ccncc3)cc2)CCCC1 [Apatinib]	-0.141

Structure (SMILES)	nucleus area z-score
CC(C)[N+]1(C)[C@@H]2CC[C@H]1C[C@@H](OC(=O)C(CO)c1ccccc1)C2 (stereo not given in full) [Ipratropium Bromide]	1.12
COCCCOc1cc(C[C@@H](C[C@H](N)[C@@H](O)C[C@H](C(=O)NCC(C)(C)C(N)=O)C(C)C)C(C)C)ccc1OC [Aliskiren Hemifumarate]	1.56
O=C(N[C@H](CO)[C@H](O)c1ccc([N+](=O)[O-])cc1)C(Cl)Cl [Chloramphenicol]	-0.607
CCCCC1C(=O)N(c2ccccc2)N(c2ccccc2)C1=O [Phenylbutazone]	-1.13
CCN[C@H]1CN(CCCOC)S(=O)(=O)c2sc(S(N)(=O)=O)cc21 [Brinzolamide]	0.567
O=C(O)CC1CC(c2ccccc2)=NO1 (stereo not given)	0.566
CN(C)CCCN1c2ccccc2CCc2ccc(Cl)cc21 [Clomipramine HCl]	-0.122
COc1cc(OC)c2c(=O)[nH]c(-c3cc(C)c(OCCO)c(C)c3)nc2c1	1.68
CC(=O)N1CCN(CCOc2ccc(C3CCN(C4=Nn5c(nnc5C(F)(F)F)CC4)CC3)cc2)CC1	-0.683
CCCCCCCCCCC[C@@H](C[C@@H]1OC(=O)[C@H]1CCCCCC)OC(=O)[C@H](CC(C)C)NC=O [Orlistat]	-0.154
CCN(CC)CCNC(=O)c1c(C)[nH]c(/C=C2\C(=O)Nc3ccc(F)cc32)c1C [Sunitinib]	-2.57
CC[C@@H]1C(=O)N(C)c2cnc(Nc3ccc(C(=O)N[C@H]4CC[C@H](N5CCN(CC6CC6)CC5)CC4)cc3OC)nc2N1C(C)C [Volasertib (BI 6727)]	-4.93
CCN1CCN(Cc2ccc(Nc3ncc(F)c(-c4cc(F)c5nc(C)n(C(C)C)c5c4)n3)nc2)CC1	-12.6
COC(=O)N[C@H](C(=O)N[C@@H](Cc1ccccc1)[C@@H](O)CN(Cc1ccc(-c2ccccn2)cc1)NC(=O)[C@@H](NC(=O)OC)C(C)(C)C)C(C)(C)C [Atazanavir Sulfate]	0.833
COC(=O)C1=CO[C@@H](O)[C@@H]2C(CO)=CC[C@H]12 [Genipin]	0.397
CC1(C)Cc2c(-c3ccccc3)c(-c3ccc(Cl)cc3)c(CC(=O)O)n2C1 [Licofelone]	-0.722
OC(CNCC(O)C1CCc2cc(F)ccc2O1)C1CCc2cc(F)ccc2O1 (stereo not given) [Nebivolol]	-1.26
CCN(CC)CCCC(C)Nc1c2ccc(Cl)cc2nc2ccc(OC)cc12 (stereo not given) [Quinacrine 2HCl]	-5.24
OCc1cc(C(O)CNCCCCCCOCCCCc2ccccc2)ccc1O (stereo not given) [Salmeterol Xinafoate]	-0.375
CNC(=O)c1cc(Oc2ccc(NC(=O)Nc3ccc(Cl)c(C(F)(F)F)c3)cc2)ccn1 [Sorafenib]	2.68

Individual results from above.
Value of `CNC(=O)c1cc(Oc2ccc(NC(=O)Nc3ccc(Cl)c(C(F)(F)F)c3)cc2)ccn1` [Sorafenib] under nucleus area z-score: 2.68
Value of `CCN[C@H]1CN(CCCOC)S(=O)(=O)c2sc(S(N)(=O)=O)cc21` [Brinzolamide] under nucleus area z-score: 0.567
